Results on one molecule are retold here after publication PMC7962754.

In this test the target is T1, IHFα1, integration host factor α subunit encoded by ihfA-1 of G. sulfurreducens, histidine-tagged (Geobacter sulfurreducens) (UniProt Q74CZ8).
T1 sequence: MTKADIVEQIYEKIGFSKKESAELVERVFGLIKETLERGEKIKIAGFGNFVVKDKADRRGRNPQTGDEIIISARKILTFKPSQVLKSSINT
The experiment in a line: pull-down; His-tagged IHFα1 and untagged IHFβ2 co-expressed in E. coli from one promoter; IHFα1 held on Ni-NTA resin, 4°C, non-denaturing conditions; IHFβ2 co-eluted.

These are yes or no findings as the source states them, for the method shown. In cells and extracts the contact can be indirect. Some entries that bind do so weakly or less than the wild type. Where a sequence is shown, tags or fusion partners need not be part of it.

B1: IHFβ2, integration host factor β subunit encoded by ihfB-2 of G. sulfurreducens, untagged (protein, UniProt Q749Z0 1-96)
chain: MTKSELVEMLAEKNSWLTRKDSEMVVNIVFDSIADALKSGEKVEIRGFGSFTVRERGAREARNPKSGAIVKIPAKKTPFFKTGKELRERVNHENAD
B1: the binding result is reported as “binds”.
